Experimental data: article PMC3762827
No constants are given. Whether binding was seen depends on the method and setting. Binding seen in cells or lysates may run through a third protein. For some of these results: Where a sequence is shown, tags or fusion partners need not be part of it. Blank lines part the entries; values can stand above or below the molecule they belong to.

Columns and labels:
mRFP-p62 (human) [1] = biological target: mRFP-p62 (human) (UniProt Q13501); assay: co-IP; HEK293 co-transfected with mRFP-p62/GFP-Atg3/Flag-LC3 for 48 h; total cell lysates, IP of each of the three with the correspondent antibody (p62 antibody, GFP-trap, Flag M2), immunoblot
GFP-Atg3 (human) = GFP-Atg3 (human) (UniProt Q9NT62); assay: as above
GFP-Atg4B (human) = biological target: T1, GFP-Atg4B (human) (UniProt Q9Y4P1); assay: co-IP; HEK293 co-transfected with mRFP-p62/GFP-Atg4B/Flag-LC3 for 48 h; total cell lysates, IP of each of the three with the correspondent antibody (p62 antibody, GFP-trap, Flag M2), immunoblot
T1 sequence: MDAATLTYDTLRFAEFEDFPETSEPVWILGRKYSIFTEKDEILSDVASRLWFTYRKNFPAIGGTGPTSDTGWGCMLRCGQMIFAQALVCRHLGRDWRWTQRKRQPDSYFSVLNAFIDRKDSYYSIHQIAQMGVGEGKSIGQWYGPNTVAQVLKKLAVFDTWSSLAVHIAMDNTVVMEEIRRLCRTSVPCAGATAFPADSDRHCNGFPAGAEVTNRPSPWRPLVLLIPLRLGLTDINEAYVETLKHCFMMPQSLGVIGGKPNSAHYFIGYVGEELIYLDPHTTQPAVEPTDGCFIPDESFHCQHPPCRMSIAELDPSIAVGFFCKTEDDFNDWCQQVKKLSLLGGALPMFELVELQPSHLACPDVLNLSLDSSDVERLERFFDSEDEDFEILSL

mRFP-p62 (human) [2] = biological target: mRFP-p62 (human) (UniProt Q13501); assay: as above

binding (mRFP-p62 (human) [1]): no binding
Molecule: GFP-Atg3 (from UniProt Q9NT62 1-314) (enzyme)

binding (GFP-Atg3 (human)): no binding | binding (GFP-Atg4B (human)): no binding
Molecule: mRFP-p62 (from UniProt Q13501 1-440)

binding (mRFP-p62 (human) [2]): no binding
B1: GFP-Atg4B (enzyme, UniProt Q9Y4P1 1-393)
chain: MDAATLTYDTLRFAEFEDFPETSEPVWILGRKYSIFTEKDEILSDVASRLWFTYRKNFPAIGGTGPTSDTGWGCMLRCGQMIFAQALVCRHLGRDWRWTQRKRQPDSYFSVLNAFIDRKDSYYSIHQIAQMGVGEGKSIGQWYGPNTVAQVLKKLAVFDTWSSLAVHIAMDNTVVMEEIRRLCRTSVPCAGATAFPADSDRHCNGFPAGAEVTNRPSPWRPLVLLIPLRLGLTDINEAYVETLKHCFMMPQSLGVIGGKPNSAHYFIGYVGEELIYLDPHTTQPAVEPTDGCFIPDESFHCQHPPCRMSIAELDPSIAVGFFCKTEDDFNDWCQQVKKLSLLGGALPMFELVELQPSHLACPDVLNLSLDSSDVERLERFFDSEDEDFEILSL
